# From the supplement of paper PMC10849652
# Amino acid sequences for entries named in this document (tags omitted). A change or cut given only in a name is not applied to a line headed by its entry.
# UniProt Q9BXB4: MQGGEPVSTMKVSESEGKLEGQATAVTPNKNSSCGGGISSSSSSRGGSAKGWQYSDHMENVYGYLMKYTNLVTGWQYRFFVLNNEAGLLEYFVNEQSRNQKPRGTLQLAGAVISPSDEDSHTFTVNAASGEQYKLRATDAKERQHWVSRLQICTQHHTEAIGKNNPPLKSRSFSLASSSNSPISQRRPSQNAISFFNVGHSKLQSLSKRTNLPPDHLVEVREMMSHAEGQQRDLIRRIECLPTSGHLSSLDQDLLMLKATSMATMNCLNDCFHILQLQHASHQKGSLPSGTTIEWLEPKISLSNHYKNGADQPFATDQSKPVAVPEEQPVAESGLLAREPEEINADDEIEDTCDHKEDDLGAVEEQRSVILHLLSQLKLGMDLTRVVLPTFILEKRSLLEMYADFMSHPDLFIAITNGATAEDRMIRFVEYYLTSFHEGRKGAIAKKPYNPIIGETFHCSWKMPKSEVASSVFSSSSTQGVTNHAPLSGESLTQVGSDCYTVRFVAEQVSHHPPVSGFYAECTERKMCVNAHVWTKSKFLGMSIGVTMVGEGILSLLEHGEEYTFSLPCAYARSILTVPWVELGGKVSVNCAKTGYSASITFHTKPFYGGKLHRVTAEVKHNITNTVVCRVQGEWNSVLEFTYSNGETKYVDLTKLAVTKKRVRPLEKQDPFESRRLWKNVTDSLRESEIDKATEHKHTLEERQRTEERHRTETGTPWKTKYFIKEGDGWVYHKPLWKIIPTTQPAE
# UniProt O75459: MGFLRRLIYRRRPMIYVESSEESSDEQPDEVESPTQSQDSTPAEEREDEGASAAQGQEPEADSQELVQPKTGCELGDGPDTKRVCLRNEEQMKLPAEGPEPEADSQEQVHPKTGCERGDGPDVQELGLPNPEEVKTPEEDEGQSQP
# UniProt Q96G74: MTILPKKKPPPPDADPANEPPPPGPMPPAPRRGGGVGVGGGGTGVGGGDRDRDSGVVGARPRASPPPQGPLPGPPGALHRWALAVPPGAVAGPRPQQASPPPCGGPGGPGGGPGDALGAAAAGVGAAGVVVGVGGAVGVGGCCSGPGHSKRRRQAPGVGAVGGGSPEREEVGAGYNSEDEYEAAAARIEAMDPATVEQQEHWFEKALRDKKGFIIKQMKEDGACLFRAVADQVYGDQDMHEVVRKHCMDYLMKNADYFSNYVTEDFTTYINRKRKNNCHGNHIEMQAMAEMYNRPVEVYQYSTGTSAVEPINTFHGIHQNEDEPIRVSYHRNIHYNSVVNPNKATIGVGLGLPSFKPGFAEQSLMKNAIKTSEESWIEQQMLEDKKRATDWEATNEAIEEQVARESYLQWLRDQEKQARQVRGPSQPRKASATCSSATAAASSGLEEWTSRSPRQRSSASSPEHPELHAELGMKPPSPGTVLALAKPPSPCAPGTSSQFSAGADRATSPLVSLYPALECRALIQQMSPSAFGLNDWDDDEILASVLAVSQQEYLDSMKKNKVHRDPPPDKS
# UniProt O75781: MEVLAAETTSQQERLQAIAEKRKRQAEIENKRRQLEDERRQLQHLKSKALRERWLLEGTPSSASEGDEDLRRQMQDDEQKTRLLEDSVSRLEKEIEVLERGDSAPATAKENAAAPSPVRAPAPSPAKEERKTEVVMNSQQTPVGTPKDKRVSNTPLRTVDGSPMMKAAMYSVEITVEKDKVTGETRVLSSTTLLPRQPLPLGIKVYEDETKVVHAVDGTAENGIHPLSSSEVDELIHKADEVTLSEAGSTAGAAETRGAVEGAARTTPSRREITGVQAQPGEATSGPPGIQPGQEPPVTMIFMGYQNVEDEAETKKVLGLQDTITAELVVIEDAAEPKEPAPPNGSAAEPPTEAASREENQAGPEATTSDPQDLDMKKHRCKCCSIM
# UniProt Q9H4L5: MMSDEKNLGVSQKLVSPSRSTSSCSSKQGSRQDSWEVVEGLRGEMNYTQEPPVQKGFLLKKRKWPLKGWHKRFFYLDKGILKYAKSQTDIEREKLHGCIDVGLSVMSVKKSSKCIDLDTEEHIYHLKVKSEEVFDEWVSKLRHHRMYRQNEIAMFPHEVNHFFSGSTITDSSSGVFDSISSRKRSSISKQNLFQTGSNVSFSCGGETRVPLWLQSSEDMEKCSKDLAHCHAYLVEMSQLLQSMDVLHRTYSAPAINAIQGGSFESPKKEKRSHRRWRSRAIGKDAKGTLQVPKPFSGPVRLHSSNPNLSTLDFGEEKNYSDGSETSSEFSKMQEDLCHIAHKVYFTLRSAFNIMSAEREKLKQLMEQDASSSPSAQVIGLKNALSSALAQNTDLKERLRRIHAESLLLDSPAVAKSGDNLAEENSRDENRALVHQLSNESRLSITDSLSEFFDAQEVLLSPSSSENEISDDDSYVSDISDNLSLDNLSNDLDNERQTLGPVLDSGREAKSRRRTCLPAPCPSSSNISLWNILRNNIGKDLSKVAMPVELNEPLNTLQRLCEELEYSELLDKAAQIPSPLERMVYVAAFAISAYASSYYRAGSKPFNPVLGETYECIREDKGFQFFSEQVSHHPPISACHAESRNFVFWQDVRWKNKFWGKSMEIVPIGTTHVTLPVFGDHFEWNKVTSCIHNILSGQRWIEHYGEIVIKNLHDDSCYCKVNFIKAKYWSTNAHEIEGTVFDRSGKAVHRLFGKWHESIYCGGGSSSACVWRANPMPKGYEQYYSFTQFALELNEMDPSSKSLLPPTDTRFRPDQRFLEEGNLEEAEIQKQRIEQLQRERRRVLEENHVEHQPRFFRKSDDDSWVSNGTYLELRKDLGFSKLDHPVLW
# UniProt Q15102: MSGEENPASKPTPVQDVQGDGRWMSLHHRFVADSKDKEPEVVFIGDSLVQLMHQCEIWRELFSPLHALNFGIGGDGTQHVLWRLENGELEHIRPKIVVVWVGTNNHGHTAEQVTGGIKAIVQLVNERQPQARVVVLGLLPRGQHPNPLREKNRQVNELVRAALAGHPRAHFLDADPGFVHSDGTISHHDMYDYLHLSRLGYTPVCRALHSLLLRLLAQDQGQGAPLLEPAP
# UniProt Q504Q3: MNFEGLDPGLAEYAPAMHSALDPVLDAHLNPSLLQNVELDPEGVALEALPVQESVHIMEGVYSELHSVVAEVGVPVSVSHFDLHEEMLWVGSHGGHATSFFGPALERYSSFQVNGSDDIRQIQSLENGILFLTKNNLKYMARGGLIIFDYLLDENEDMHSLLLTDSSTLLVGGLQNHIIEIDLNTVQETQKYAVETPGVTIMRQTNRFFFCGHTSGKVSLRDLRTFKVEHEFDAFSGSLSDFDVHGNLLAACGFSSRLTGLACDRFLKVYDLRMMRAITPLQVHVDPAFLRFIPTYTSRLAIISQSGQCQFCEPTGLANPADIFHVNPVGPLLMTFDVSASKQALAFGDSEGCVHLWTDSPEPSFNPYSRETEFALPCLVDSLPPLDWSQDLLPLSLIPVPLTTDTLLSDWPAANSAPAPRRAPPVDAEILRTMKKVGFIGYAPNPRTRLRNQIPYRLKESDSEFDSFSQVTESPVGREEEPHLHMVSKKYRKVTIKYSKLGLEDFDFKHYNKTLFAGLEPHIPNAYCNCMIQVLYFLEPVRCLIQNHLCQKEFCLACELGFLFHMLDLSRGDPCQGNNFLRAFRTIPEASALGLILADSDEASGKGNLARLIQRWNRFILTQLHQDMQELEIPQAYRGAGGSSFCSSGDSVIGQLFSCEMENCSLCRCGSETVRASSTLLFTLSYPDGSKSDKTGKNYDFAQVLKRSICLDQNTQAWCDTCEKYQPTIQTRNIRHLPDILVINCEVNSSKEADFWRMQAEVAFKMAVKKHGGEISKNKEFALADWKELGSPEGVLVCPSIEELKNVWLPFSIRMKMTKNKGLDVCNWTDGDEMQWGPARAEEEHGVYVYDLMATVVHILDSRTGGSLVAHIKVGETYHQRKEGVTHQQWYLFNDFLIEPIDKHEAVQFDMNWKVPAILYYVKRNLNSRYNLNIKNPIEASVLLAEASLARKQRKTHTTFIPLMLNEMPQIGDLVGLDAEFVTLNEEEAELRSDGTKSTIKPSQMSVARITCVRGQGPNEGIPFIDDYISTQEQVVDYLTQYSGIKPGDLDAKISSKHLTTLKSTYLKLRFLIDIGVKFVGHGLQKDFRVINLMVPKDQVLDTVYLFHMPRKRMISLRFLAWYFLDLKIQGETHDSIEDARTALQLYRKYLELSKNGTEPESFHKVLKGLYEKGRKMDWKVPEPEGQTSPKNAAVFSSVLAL
# UniProt Q9NRP0: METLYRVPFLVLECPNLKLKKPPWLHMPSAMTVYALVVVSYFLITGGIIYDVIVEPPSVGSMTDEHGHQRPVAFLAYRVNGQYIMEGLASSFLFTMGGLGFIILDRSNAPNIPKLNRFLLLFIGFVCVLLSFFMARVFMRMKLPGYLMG
# UniProt Q8N1F7: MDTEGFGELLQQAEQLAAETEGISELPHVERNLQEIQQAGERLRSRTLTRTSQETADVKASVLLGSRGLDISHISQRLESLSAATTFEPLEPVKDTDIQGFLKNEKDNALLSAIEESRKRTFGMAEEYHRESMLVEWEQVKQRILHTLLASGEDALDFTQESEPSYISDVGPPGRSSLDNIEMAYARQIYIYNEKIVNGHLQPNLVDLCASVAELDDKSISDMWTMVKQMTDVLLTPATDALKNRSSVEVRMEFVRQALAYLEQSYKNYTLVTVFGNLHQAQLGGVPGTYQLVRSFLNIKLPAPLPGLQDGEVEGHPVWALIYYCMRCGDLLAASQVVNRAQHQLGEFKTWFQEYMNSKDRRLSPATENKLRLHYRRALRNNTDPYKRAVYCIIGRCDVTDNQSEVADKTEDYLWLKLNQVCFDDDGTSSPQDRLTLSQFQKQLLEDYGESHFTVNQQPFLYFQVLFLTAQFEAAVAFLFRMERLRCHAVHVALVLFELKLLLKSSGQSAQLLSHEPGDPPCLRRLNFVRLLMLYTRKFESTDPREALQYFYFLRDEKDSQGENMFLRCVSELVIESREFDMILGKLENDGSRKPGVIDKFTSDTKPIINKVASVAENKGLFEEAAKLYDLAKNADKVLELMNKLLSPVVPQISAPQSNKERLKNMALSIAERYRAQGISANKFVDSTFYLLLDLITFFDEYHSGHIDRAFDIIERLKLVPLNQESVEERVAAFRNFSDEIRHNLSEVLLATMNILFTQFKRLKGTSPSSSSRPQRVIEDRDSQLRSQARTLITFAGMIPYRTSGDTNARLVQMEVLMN
# UniProt O43252: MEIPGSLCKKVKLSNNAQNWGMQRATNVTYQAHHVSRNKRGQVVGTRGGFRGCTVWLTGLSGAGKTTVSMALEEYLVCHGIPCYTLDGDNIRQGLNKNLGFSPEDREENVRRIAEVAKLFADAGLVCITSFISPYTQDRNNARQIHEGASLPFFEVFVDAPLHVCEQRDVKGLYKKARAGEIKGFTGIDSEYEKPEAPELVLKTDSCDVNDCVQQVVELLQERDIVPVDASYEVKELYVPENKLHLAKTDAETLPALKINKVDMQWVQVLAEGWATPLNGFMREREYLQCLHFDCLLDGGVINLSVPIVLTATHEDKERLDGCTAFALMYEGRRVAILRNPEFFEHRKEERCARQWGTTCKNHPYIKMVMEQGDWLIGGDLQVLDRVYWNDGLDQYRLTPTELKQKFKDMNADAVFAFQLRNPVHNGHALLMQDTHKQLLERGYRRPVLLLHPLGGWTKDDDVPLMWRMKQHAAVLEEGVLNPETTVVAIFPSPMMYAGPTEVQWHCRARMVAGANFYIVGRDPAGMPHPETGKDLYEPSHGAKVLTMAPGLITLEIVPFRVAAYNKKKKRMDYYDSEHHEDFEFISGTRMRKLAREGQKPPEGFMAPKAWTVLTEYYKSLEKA
# UniProt Q96BN8, whole entry, looked up: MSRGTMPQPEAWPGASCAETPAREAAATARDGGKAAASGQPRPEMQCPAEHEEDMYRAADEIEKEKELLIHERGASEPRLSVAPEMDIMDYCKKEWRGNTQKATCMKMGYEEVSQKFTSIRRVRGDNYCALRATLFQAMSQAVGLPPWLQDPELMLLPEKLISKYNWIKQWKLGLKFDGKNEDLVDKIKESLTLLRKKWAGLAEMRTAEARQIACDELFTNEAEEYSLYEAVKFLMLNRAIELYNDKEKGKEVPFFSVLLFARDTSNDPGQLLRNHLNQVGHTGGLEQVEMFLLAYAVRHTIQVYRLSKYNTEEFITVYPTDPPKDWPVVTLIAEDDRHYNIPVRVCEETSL
# UniProt P43034: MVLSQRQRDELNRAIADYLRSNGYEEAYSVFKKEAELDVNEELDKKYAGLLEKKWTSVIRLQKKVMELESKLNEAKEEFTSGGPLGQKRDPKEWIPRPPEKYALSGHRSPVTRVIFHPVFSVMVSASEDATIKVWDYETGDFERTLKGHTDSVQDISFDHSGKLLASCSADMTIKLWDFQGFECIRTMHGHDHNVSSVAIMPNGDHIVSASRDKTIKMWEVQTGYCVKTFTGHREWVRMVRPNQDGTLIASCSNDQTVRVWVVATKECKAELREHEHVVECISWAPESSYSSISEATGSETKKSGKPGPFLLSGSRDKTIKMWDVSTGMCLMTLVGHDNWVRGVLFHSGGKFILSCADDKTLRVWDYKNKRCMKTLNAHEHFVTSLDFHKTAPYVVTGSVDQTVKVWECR
# The list shows a part of the results.
# Legend:
# Test in all cases: log2 fold change, soluble protein after heating vs DMSO (PISA); higher = thermal stabilisation; K562 lysate, 10 uM; active = over 0.2 and 3.5 SD of the protein, either way, in both replicates (recomputed)
# nilotinib = compound: Cc1cn(-c2cc(NC(=O)c3ccc(C)c(Nc4nccc(-c5cccnc5)n4)c3)cc(C(F)(F)F)c2)cn1 [nilotinib]
# Summary of the method: (§1)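 Quantification was by TMTpro 16plex LC-MS/MS with equalised channel sums, applied to the supernatant after 21,000xg for 90 min. Samples were crude K562 extract at 1 mg/mL protein in PBS pH 7.4 with 1 mM MgCl2, treated with 10 μM compound for 30 min, heated for 3 min across 48°C-58°C, pooled and brought to 0.5% NP-40 at 4°C. Values are log-two fold changes in thermal stability relative to solvent controls, from duplicates.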
# [1] = compound: Cc1nc(Nc2n[nH]c3c2CN(C(=O)N[C@H](CN(C)C)c2ccccc2)C3(C)C)c2sccc2n1
# Summary of the method: as §1
# dasatinib = compound: Cc1nc(Nc2ncc(C(=O)Nc3c(C)cccc3Cl)s2)cc(N2CCN(CCO)CC2)n1 [dasatinib]
# Summary of the method: as §1
# [2] = compound: Cc1ncc(-c2ccnc(Nc3ccc(S(C)(=O)=O)cc3)n2)n1C(C)C
# Summary of the method: as §1
# [3] = compound: Cn1cc(-c2ccc3c(c2)CCN3C(=O)Cc2cccc(C(F)(F)F)c2)c2c(N)ncnc21
# Summary of the method: as §1
# quisinostat = compound: Cn1cc(CNCC2CCN(c3ncc(C(=O)NO)cn3)CC2)c2ccccc21 [quisinostat]
# Summary of the method: as §1
# tipifarnib = compound: Cn1cncc1[C@@](N)(c1ccc(Cl)cc1)c1ccc2c(c1)c(-c1cccc(Cl)c1)cc(=O)n2C [tipifarnib]
# Summary of the method: as §1
# [4] = compound: NC(=O)Nc1cc(-c2cccc(F)c2)sc1C(=O)N[C@H]1CCCNC1
# Summary of the method: as §1
# [5] = compound: NC(=O)c1cnc(N[C@@H]2CCCC[C@@H]2N)nc1Nc1cccc(-n2nccn2)c1
# Summary of the method: as §1
# [6] = compound: NC1(c2ccc(-c3nc4ccn5c(=O)[nH]nc5c4cc3-c3ccccc3)cc2)CCC1
# Summary of the method: as §1
# [7] = compound: NCC(=O)Nc1ccc(-n2nc(C(F)(F)F)cc2-c2ccc3c(ccc4ccccc43)c2)cc1
# Summary of the method: as §1
# vorinostat = compound: O=C(CCCCCCC(=O)Nc1ccccc1)NO [vorinostat]
# Summary of the method: as §1
# silmitasertib = compound: O=C(O)c1ccc2c(c1)nc(Nc1cccc(Cl)c1)c1ccncc12 [silmitasertib]
# Summary of the method: as §1
# [8] = compound: O=C1NC(=O)C(c2cnc3ccccn23)=C1c1cn2c3c(cc(F)cc13)CN(C(=O)N1CCCCC1)CC2
# Summary of the method: as §1
# entospletinib = compound: c1cn2cc(-c3ccc4cn[nH]c4c3)nc(Nc3ccc(N4CCOCC4)cc3)c2n1 [entospletinib]
# Summary of the method: as §1
Target,log2 fold change (nilotinib),log2 fold change [1],log2 fold change (dasatinib),log2 fold change [2],log2 fold change [3],log2 fold change (quisinostat),log2 fold change (tipifarnib),log2 fold change [4],log2 fold change [5],log2 fold change [6],log2 fold change [7],log2 fold change (vorinostat),log2 fold change (silmitasertib),log2 fold change [8],log2 fold change (entospletinib)
OSBPL11 (UniProt Q9BXB4),inactive: -0.027,inactive: 0.058,inactive: -0.181,inactive: 0.008,inactive: 0.004,inactive: -0.023,inactive: 0.128,inactive: 0.02,inactive: -0.019,inactive: -0.004,inactive: 0.025,inactive: 0.06,inactive: 0.102,inactive: -0.008,inactive: 0.008
OXNAD1 (UniProt Q96HP4),inactive: 0.024,inactive: 0.029,inactive: -0.017,inactive: -0.031,inactive: 0.06,inactive: -0.037,inactive: -0.008,inactive: 0.084,inactive: 0.017,inactive: 0.043,inactive: 0.036,inactive: -0.279,inactive: 0.012,inactive: -0.016,inactive: 0.002
NUP210 (UniProt Q8TEM1),inactive: -0.019,inactive: -0.008,inactive: -0.08,inactive: 0.009,inactive: 0.001,inactive: 0.084,inactive: -0.043,inactive: -0.01,inactive: 0.059,inactive: -0.019,inactive: -0.006,active: 0.276,inactive: 0.022,inactive: -0.013,inactive: -0.038
PAGE1 (UniProt O75459),inactive: -0.079,inactive: 0.086,inactive: 0.049,inactive: 0.003,inactive: -0.071,inactive: 0,inactive: -0.015,inactive: -0.018,inactive: -0.028,inactive: 0.001,inactive: 0.028,inactive: 0.094,inactive: 0.036,inactive: -0.044,inactive: -0.068
OTUD5 isoform 5 (UniProt Q96G74),inactive: 0.022,inactive: -0.009,inactive: 0.013,inactive: -0.058,inactive: 0.025,inactive: -0.005,inactive: 0,inactive: 0.023,inactive: -0.001,inactive: -0.025,inactive: 0.002,inactive: 0.03,inactive: -0.034,inactive: 0.017,inactive: 0.028
PALM (UniProt O75781),inactive: -0.012,inactive: 0.022,inactive: 0.005,inactive: -0.09,inactive: 0.042,inactive: -0.04,inactive: -0.058,inactive: -0.03,inactive: 0.008,inactive: 0.035,inactive: 0.023,inactive: 0.153,inactive: -0.032,inactive: -0.022,inactive: -0.043
OSBPL3 isoform 2 (UniProt Q9H4L5),inactive: 0.085,inactive: -0.048,inactive: -0.191,inactive: -0.026,inactive: 0.024,inactive: -0.051,inactive: -0.02,inactive: 0.003,inactive: 0.017,inactive: -0.151,inactive: -0.087,active: -0.36,active: 0.402,inactive: 0.062,inactive: 0.052
PAFAH1B3 (UniProt Q15102),inactive: 0.005,inactive: 0.036,inactive: -0.057,inactive: -0.026,inactive: 0.03,inactive: 0.01,inactive: -0.01,inactive: -0.009,inactive: 0.031,inactive: 0.021,inactive: -0.013,inactive: -0.179,inactive: 0.041,inactive: 0.003,inactive: -0.052
PAN2 isoform 2 (UniProt Q504Q3),inactive: 0.072,inactive: 0.013,inactive: -0.012,inactive: 0.046,inactive: 0.079,inactive: -0.036,inactive: -0.049,inactive: 0.056,inactive: 0.02,inactive: -0.028,inactive: 0.11,inactive: -0.097,inactive: 0.038,inactive: -0.056,inactive: 0.038
PAK1IP1 (UniProt Q9NWT1),inactive: 0,inactive: -0.004,inactive: -0.01,inactive: 0.012,inactive: 0.033,inactive: -0.02,inactive: -0.008,inactive: 0.005,inactive: -0.019,inactive: -0.012,inactive: -0.008,inactive: 0.09,inactive: 0.006,inactive: -0.083,inactive: 0.046
OSTC (UniProt Q9NRP0),inactive: 0.046,inactive: -0.108,inactive: 0,inactive: 0.07,inactive: -0.127,inactive: -0.162,inactive: -0.083,inactive: 0.017,inactive: 0.014,inactive: 0.004,inactive: -0.315,inactive: 0.121,inactive: -0.013,inactive: 0.061,inactive: -0.083
NUP93 (UniProt Q8N1F7),inactive: -0.02,inactive: 0.001,inactive: -0.098,inactive: -0.006,inactive: 0.031,inactive: 0.037,inactive: -0.04,inactive: 0.021,inactive: 0.018,inactive: -0.005,inactive: -0.011,active: -0.242,inactive: 0.067,inactive: 0.015,inactive: 0.022
OGT (UniProt O15294),inactive: 0.018,inactive: 0.01,inactive: -0.027,inactive: -0.002,inactive: 0.041,inactive: -0.067,inactive: -0.012,inactive: 0.026,inactive: 0.009,inactive: -0.023,inactive: 0.002,active: -0.42,inactive: 0.035,inactive: 0.045,inactive: 0.021
PAPSS1 (UniProt O43252),inactive: 0.007,inactive: -0.022,inactive: -0.008,inactive: -0.012,inactive: 0,inactive: 0.017,inactive: 0.017,inactive: 0.001,inactive: 0.003,inactive: -0.003,inactive: -0.006,inactive: -0.124,inactive: 0.031,inactive: 0.016,inactive: -0.003
PAICS (UniProt E9PBS1),inactive: -0.079,inactive: -0.026,inactive: 0.044,inactive: 0.117,inactive: 0.244,inactive: -0.318,inactive: 0.266,inactive: 0.273,inactive: 0.143,inactive: 0.312,inactive: 0.022,inactive: -0.057,inactive: 0.08,inactive: 0.186,inactive: 0.02
OTULIN (UniProt Q96BN8),inactive: 0.005,inactive: -0.019,inactive: 0.114,inactive: -0.04,inactive: 0.031,inactive: 0.003,inactive: -0.008,inactive: 0.02,inactive: 0.014,inactive: 0.079,inactive: -0.022,inactive: -0.067,inactive: 0.058,inactive: 0.051,inactive: 0.009
OXSM (UniProt Q9NWU1),inactive: -0.012,inactive: -0.075,inactive: 0.016,inactive: 0.024,inactive: -0.002,inactive: 0.001,inactive: 0.016,inactive: 0.023,inactive: -0.035,inactive: -0.038,inactive: -0.019,inactive: 0.113,inactive: -0.04,inactive: 0.038,inactive: -0.028
PAFAH1B1 (UniProt P43034),inactive: 0.005,inactive: 0.033,inactive: 0.062,inactive: 0.009,inactive: -0.004,inactive: 0.079,inactive: 0.002,inactive: -0.011,inactive: -0.021,inactive: 0.003,inactive: 0,inactive: 0.074,inactive: -0.006,inactive: -0.025,inactive: 0.019
ODR4 (UniProt Q5SWX8),inactive: 0.007,inactive: 0.002,inactive: 0.009,inactive: -0.015,inactive: -0.018,inactive: -0.132,inactive: 0.03,inactive: 0.013,inactive: 0.034,inactive: -0.035,inactive: -0.035,inactive: 0.196,inactive: 0.017,inactive: -0.031,inactive: -0.031

# Some entries already given with just log2 fold change (vorinostat) and log2 fold change (silmitasertib).
Target | log2 fold change (vorinostat) | log2 fold change (silmitasertib)
PAICS (UniProt E9PBS1) | inactive: -0.057 | inactive: 0.08
OTULIN (UniProt Q96BN8) | inactive: -0.067 | inactive: 0.058
